The text below walks through data of paper PMC6957483, “Anosmin-1 activates vascular endothelial growth factor receptor and its related signaling pathway for olfactory bulb angiogenesis” (Scientific Reports, 2020).

Results are given in words; binding and its absence hold for the method and conditions named.

This experiment addresses Recombinant human VEGF-A165 (human). Put plainly: SPR; BIAcore, 20 °C; VEGF-A (50 µg/mL in 10 mM sodium acetate, pH 4.5) coupled to an EDC/NHS-activated CM5 chip; anosmin-1 WT injected in PBS with 0.35 M NaCl at 30 µL/min; both purified.

B1: Recombinant human anosmin-1 wild-type (natural protein, UniProt P23352 25-680, looked up)
chain: AGPGAAAARRLDESLSAGSVQRARCASRCLSLQITRISAFFQHFQNNGSLVWCQNHKQCSKCLEPCKESGDLRKHQCQSFCEPLFPKKSYECLTSCEFLKYILLVKQGDCPAPEKASGFAAACVESCEVDNECSGVKKCCSNGCGHTCQVPKTLYKGVPLKPRKELRFTELQSGQLEVKWSSKFNISIEPVIYVVQRRWNYGIHPSEDDATHWQTVAQTTDERVQLTDIRPSRWYQFRVAAVNVHGTRGFTAPSKHFRSSKDPSAPPAPANLRLANSTVNSDGSVTVTIVWDLPEEPDIPVHHYKVFWSWMVSSKSLVPTKKKRRKTTDGFQNSVILEKLQPDCDYVVELQAITYWGQTRLKSAKVSLHFTSTHATNNKEQLVKTRKGGIQTQLPFQRRRPTRPLEVGAPFYQDGQLQVKVYWKKTEDPTVNRYHVRWFPEACAHNRTTGSEASSGMTHENYIILQDLSFSCKYKVTVQPIRPKSHSKAEAVFFTTPPCSALKGKSHKPVGCLGEAGHVLSKVLAKPENLSASFIVQDVNITGHFSWKMAKANLYQPMTGFQVTWAEVTTESRQNSLPNSIISQSQILPSDHYVLTVPNLRPSTLYRLEVQVLTPGGEGPATIKTFRTPELPPSSAHRSHLKHRHPHHYKPSPERY
notes: anosmin-1, human, product of the ANOS1 gene; also called anosmin-1 WT; WT; source: 293 T cells (pSecTag2 vector), conditioned media, purified (HisTrap HP column, PD-10 column)
Regarding B1, the binding result is reported as “no binding (tested: RU less than 70)”.
